Results are given in words; binding and its absence hold for the method and conditions named. In cells and extracts the contact can be indirect. Some entries that bind do so weakly or less than the wild type.
Target: Ubiquitin-specific protease 7 (human (endogenous in U2OS)) (UniProt Q93009)
Experiment: co-IP; U2OS lysate (50 mM Tris-HCl pH 7.5, 150 mM NaCl, 5 mM EDTA) precipitated with anti-USP7 and protein A/G agarose, 4 °C; IgG as control; western blot for NLRP3

Protein sequences, listed by entry. Tags and fused reporters are not part of them.
UniProt Q93009: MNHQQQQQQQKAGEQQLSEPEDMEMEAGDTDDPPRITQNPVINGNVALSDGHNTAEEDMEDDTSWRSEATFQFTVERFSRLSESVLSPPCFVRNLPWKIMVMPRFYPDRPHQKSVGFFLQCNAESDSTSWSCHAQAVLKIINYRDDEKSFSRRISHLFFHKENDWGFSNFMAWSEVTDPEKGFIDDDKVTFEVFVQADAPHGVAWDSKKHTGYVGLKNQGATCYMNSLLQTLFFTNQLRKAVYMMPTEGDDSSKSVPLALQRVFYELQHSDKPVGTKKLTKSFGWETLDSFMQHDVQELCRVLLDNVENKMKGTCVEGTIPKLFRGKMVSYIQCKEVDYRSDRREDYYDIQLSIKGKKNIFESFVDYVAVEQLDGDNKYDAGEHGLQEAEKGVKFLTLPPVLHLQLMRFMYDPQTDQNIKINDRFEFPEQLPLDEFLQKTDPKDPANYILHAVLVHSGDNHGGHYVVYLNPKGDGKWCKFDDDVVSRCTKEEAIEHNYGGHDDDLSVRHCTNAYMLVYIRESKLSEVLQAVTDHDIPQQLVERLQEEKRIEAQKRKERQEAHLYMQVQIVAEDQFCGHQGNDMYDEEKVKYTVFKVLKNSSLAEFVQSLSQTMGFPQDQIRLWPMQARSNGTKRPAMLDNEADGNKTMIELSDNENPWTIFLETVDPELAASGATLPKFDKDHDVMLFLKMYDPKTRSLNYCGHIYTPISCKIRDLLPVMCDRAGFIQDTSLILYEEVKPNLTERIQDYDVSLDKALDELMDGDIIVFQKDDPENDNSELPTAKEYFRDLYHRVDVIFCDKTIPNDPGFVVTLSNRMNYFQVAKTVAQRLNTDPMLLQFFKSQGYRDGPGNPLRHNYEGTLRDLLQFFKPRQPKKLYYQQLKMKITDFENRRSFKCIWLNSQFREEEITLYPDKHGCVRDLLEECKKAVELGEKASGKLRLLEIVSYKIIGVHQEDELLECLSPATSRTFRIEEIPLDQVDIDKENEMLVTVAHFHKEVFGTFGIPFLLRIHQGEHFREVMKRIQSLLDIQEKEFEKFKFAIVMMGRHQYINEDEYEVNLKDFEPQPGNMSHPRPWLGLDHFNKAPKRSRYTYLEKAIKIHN
UniProt Q96P20: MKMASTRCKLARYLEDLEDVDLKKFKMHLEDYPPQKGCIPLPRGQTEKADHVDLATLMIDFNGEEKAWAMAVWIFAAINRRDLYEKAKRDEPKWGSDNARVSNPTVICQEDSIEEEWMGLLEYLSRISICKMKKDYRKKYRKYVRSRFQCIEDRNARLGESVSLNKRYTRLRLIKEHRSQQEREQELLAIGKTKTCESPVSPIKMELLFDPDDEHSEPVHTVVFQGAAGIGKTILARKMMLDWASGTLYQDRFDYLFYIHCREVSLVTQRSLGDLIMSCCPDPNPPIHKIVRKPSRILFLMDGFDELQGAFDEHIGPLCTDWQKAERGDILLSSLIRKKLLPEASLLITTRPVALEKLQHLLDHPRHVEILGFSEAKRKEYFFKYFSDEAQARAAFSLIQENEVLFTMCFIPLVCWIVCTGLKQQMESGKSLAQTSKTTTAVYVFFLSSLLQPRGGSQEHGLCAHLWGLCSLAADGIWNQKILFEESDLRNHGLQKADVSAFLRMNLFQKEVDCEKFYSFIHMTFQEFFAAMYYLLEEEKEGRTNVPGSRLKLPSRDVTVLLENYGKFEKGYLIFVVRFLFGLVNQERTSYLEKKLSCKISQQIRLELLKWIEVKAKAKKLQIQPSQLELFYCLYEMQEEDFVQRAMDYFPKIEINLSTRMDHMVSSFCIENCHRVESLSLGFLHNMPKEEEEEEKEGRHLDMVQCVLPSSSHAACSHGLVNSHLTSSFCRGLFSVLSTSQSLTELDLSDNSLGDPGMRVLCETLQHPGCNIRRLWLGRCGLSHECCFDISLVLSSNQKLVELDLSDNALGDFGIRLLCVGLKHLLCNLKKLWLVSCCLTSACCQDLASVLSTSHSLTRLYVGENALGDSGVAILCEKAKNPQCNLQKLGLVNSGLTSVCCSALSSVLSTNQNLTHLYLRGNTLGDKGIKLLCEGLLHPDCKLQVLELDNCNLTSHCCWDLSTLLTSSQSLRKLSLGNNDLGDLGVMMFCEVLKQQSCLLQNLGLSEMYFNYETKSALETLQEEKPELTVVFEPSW

NLRP3 (from UniProt Q96P20 1-1036) was tested, and the binding was “binds”.

— PMC10928159
